# Structures can show the parent of a compound that is named as a salt. The list shows a part of the results. Most entries show no effect beyond the scatter of the controls.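 Melting temperature was read by differential scanning fluorimetry in a single-replicate pilot screen of a library of approved drugs and clinical or known-target compounds. Compounds raising the melting point by at least 2 °C were the top stabilizing hits, and negative shifts mean destabilization.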
# Test system: SARS-CoV-2 main protease (Mpro, nsp5)
# Assay: thermal shift ΔTm of Mpro relative to plate average Tm; higher = stronger thermal stabilization of Mpro (binding)
# Conditions: 10 µM; protein concentration 1 µM
row,SMILES,thermal shift ΔTm of Mpro
1,CCc1cc2c(s1)-n1c(C)nnc1CN=C2c1ccccc1Cl [Etizolam],-0.0434 °C
2,COc1cc(OC)c(C(=O)CCCN2CCCC2)c(OC)c1 [Buflomedil HCl],0.057 °C
3,N#CC(c1ccc(Cl)cc1)c1c(Cl)cc(-n2ncc(=O)[nH]c2=O)cc1Cl (stereo unspecified) [Diclazuril],0.118 °C
4,O=c1ccc2ccc(O)c(O)c2o1 [Daphnetin],3.68 °C
5,O.O.O.O.O=C([O-])CC(O)(CC(=O)[O-])C(=O)[O-].[Li+].[Li+].[Li+] [Lithium citrate tribasic tetrahydrate],-0.00458 °C
6,CC(C)(C)C(=O)OCOP(=O)(COCCn1cnc2c(N)ncnc21)OCOC(=O)C(C)(C)C [Adefovir Dipivoxil],-0.013 °C
7,COc1ccc(CCNCc2ccc(OCc3ccc(Cl)nc3)c(OC)c2)cc1OC,-0.164 °C
8,Cn1c(=O)cnn(CCCCN2CCN(c3ncccn3)CC2)c1=O [Eptapirone],0.188 °C
9,O=S(=O)(c1cccc2c(I)cccc12)N1CCCNCC1 [ML-7 hydrochloride],-0.226 °C
10,COc1ccccc1N1CCN(CC(O)COc2cccc3ccccc23)CC1 (stereo unspecified) [Naftopidil DiHCl],0.138 °C
11,COc1ccccc1N1CCN(CC(O)COc2cccc3ccccc23)CC1 (stereo unspecified) [Naftopidil],0.1 °C
12,CN1CCC(=C2c3ccccc3CC(=O)c3sccc32)CC1 [Ketotifen Fumarate],0.0269 °C
13,CCCNC[C@]1(O)[C@H](C)O[C@@H](O[C@H]2[C@H](C)[C@@H](O[C@@H]3O[C@H](C)C[C@H](N(C)C)[C@H]3O)[C@](C)(O)C[C@@H](C)CN[C@H](C)[C@@H](O)[C@](C)(O)[C@@H](CC)OC(=O)[C@@H]2C)C[C@@]1(C)OC [Tulathromycin A],-0.0443 °C
14,O=C(O)CC[C@H]1CC[C@@](c2cc(F)ccc2F)(S(=O)(=O)c2ccc(Cl)cc2)CC1,0.0152 °C
15,C/C=C1\NC(=O)[C@H]2CSSCC/C=C/[C@H](CC(=O)N[C@H](C(C)C)C(=O)N2)OC(=O)[C@H](C(C)C)NC1=O [Romidepsin],0.114 °C
16,CC(C)c1cc(/C=C(\C#N)C(N)=O)cc(C(C)C)c1O,-0.0114 °C
17,CCc1ccc(N(CC(C)C)S(=O)(=O)c2ccc(OCC3CCOCC3)c(CO)c2)cc1,0.0791 °C
18,COC(=O)c1sccc1S(=O)(=O)Nc1ccc(Nc2ccccc2)cc1OC,-0.108 °C
19,CC(C)(Sc1cc(C(C)(C)C)c(O)c(C(C)(C)C)c1)Sc1cc(C(C)(C)C)c(O)c(C(C)(C)C)c1 [Probucol],0.136 °C
20,Cc1cccc(-c2[nH]ncc2-c2ccnc3ccccc23)n1,0.0571 °C
21,CCOc1cc(C(C)(C)C)ccc1C1COC(c2c(F)cccc2F)=N1 (stereo unspecified) [Etoxazole],-0.227 °C
22,C=CC(=O)Nc1cccc(Nc2nc(Nc3ccc(N4CCN(C(C)=O)CC4)cc3OC)ncc2C(F)(F)F)c1,0.00733 °C
23,O=C(Nc1ccc(O)cc1)c1ccccc1O [Osalmid],0.101 °C
24,CS(=O)(=O)CCNCc1ccc(-c2ccc3ncnc(Nc4ccc(OCc5cccc(F)c5)c(Cl)c4)c3c2)o1 [Lapatinib ditosylate monohydrate],0.32 °C
25,CS(=O)(=O)CCNCc1ccc(-c2ccc3ncnc(Nc4ccc(OCc5cccc(F)c5)c(Cl)c4)c3c2)o1 [Lapatinib],0.674 °C
26,CS(=O)(=O)CCNCc1ccc(-c2ccc3ncnc(Nc4ccc(OCc5cccc(F)c5)c(Cl)c4)c3c2)o1,0.628 °C

row,SMILES,thermal shift ΔTm of Mpro
1,Oc1ccc(Cl)c2cccnc12 [Dermofongin],0.214 °C
2,Nc1c(Br)cc(Br)cc1CN[C@H]1CC[C@H](O)CC1 [Ambroxol HCl],0.0643 °C
3,Nc1c(Br)cc(Br)cc1CN[C@H]1CC[C@H](O)CC1 [Ambroxol],0.259 °C
4,Cn1ccnc1S [Methimazole],-0.035 °C
5,O=C(O)CCC(=O)Nc1ccc(Br)cn1 [Bikinin],-0.207 °C
6,COc1ccc(C(=O)Nc2sc3c(c2C(N)=O)CCCC3)cc1OC,-0.123 °C
7,CC(=O)N[C@@H](CCC(N)=O)C(=O)O [Aceglutamide],-0.345 °C
8,O=NO [Sodium Nitrite],0.178 °C
9,CC(=O)NO [Acetohydroxamic acid],0.184 °C
10,COc1cc(Nc2ncc(F)c(Nc3ccc4c(n3)NC(=O)C(C)(C)O4)n2)cc(OC)c1OC,-0.0341 °C
11,COc1cc(Nc2ncc(F)c(Nc3ccc4c(n3)NC(=O)C(C)(C)O4)n2)cc(OC)c1OC [R406 (free base)],0.0493 °C
12,CC[C@H]1OC(=O)[C@@](C)(F)C(=O)[C@H](C)[C@@H](O[C@@H]2O[C@H](C)C[C@H](N(C)C)[C@H]2O)[C@](C)(OC)C[C@@H](C)C(=O)[C@H](C)[C@H]2N(CCCCn3cc(-c4cccc(N)c4)nn3)C(=O)O[C@]12C [Solithromycin],-0.0534 °C
13,CC(C)(Oc1ccc(Cl)cc1)C(=O)O [Clofibric Acid],0.0159 °C
14,CC(=O)[C@@]1(O)CC[C@H]2[C@@H]3CCC4=CC(=O)CCC4=C3[C@@H](c3ccc(N(C)C)cc3)C[C@@]21C [Ulipristal],-0.16 °C
15,O=c1cc(N2CCNCC2)oc2c(-c3ccccc3)cccc12,0.108 °C
16,Cc1c(N[C@@H](c2nnc(-c3ccc(C#N)cc3)o2)[C@H](C)O)ccc(C#N)c1Cl [Testolone],-0.095 °C
17,COc1cc2ncc(-c3ccccc3)nc2cc1OC [Tyrphostin AG 1296],-0.062 °C
18,Cc1ccc(/C(=C\CN2CCCC2)c2cccc(/C=C/C(=O)O)n2)cc1 [Acrivastine],0.103 °C
19,CCC[C@H](Nc1nc(-c2ccc(NC(=O)NCC)c(OC)c2)ncc1C)c1cccnc1 [CYT997 (Lexibulin)],-0.163 °C
20,COc1cc2ncnc(Nc3ccc(Oc4ccccc4)cc3C)c2cc1OC,-0.0834 °C
21,CS(=O)(=O)c1cccc(CNc2nc(Nc3ccc4c(c3)CCC(=O)N4)ncc2C(F)(F)F)c1,0.0365 °C
22,CCCCCCCCCCC[C@@H](C[C@@H]1OC(=O)[C@H]1CCCCCC)OC(=O)[C@H](CC(C)C)NC=O [Orlistat],0.111 °C
23,CC(C)(C)n1nc(-c2ccc(Cl)cc2)c2c(N)ncnc21,-0.0517 °C
24,Cc1onc(-c2ccccc2Cl)c1C(=O)N(C)c1ccc(Cl)cc1,0.0501 °C
25,CC1(C)CCC(CN2CCN(c3ccc(C(=O)NS(=O)(=O)c4ccc(NCC5CCOCC5)c([N+](=O)[O-])c4)c(Oc4cnc5[nH]ccc5c4)c3)CC2)=C(c2ccc(Cl)cc2)C1,1.07 °C

# No new results follow: entries from further up.
row,SMILES,thermal shift ΔTm of Mpro
6,CC(C)(C)C(=O)OCOP(=O)(COCCn1cnc2c(N)ncnc21)OCOC(=O)C(C)(C)C [Adefovir Dipivoxil],-0.013 °C
7,COc1ccc(CCNCc2ccc(OCc3ccc(Cl)nc3)c(OC)c2)cc1OC,-0.164 °C
8,Cn1c(=O)cnn(CCCCN2CCN(c3ncccn3)CC2)c1=O [Eptapirone],0.188 °C
9,O=S(=O)(c1cccc2c(I)cccc12)N1CCCNCC1 [ML-7 hydrochloride],-0.226 °C
10,COc1ccccc1N1CCN(CC(O)COc2cccc3ccccc23)CC1 (stereo unspecified) [Naftopidil DiHCl],0.138 °C
11,COc1ccccc1N1CCN(CC(O)COc2cccc3ccccc23)CC1 (stereo unspecified) [Naftopidil],0.1 °C
12,CN1CCC(=C2c3ccccc3CC(=O)c3sccc32)CC1 [Ketotifen Fumarate],0.0269 °C
13,CCCNC[C@]1(O)[C@H](C)O[C@@H](O[C@H]2[C@H](C)[C@@H](O[C@@H]3O[C@H](C)C[C@H](N(C)C)[C@H]3O)[C@](C)(O)C[C@@H](C)CN[C@H](C)[C@@H](O)[C@](C)(O)[C@@H](CC)OC(=O)[C@@H]2C)C[C@@]1(C)OC [Tulathromycin A],-0.0443 °C
14,O=C(O)CC[C@H]1CC[C@@](c2cc(F)ccc2F)(S(=O)(=O)c2ccc(Cl)cc2)CC1,0.0152 °C
15,C/C=C1\NC(=O)[C@H]2CSSCC/C=C/[C@H](CC(=O)N[C@H](C(C)C)C(=O)N2)OC(=O)[C@H](C(C)C)NC1=O [Romidepsin],0.114 °C
16,CC(C)c1cc(/C=C(\C#N)C(N)=O)cc(C(C)C)c1O,-0.0114 °C
17,CCc1ccc(N(CC(C)C)S(=O)(=O)c2ccc(OCC3CCOCC3)c(CO)c2)cc1,0.0791 °C
18,COC(=O)c1sccc1S(=O)(=O)Nc1ccc(Nc2ccccc2)cc1OC,-0.108 °C
19,CC(C)(Sc1cc(C(C)(C)C)c(O)c(C(C)(C)C)c1)Sc1cc(C(C)(C)C)c(O)c(C(C)(C)C)c1 [Probucol],0.136 °C
20,Cc1cccc(-c2[nH]ncc2-c2ccnc3ccccc23)n1,0.0571 °C
21,CCOc1cc(C(C)(C)C)ccc1C1COC(c2c(F)cccc2F)=N1 (stereo unspecified) [Etoxazole],-0.227 °C

# Source: the supplement of paper PMC8166895
